Test results taken from patent US20250283871A1, “COMPOSITIONS AND METHODS FOR MODULATING THE INTERACTION BETWEEN SS18-SSX FUSION ONCOPROTEIN AND NUCLEOSOMES” (Dana-Farber Cancer Institute, Inc., priority 2020, published 2025).

System: BAF complex subunits and histone proteins
Experiment: Mass spectrometry proteomics of purified HA-SS18 WT and HA-SS18-SSX1 complexes (Tables 5A-5E)
Set-up: species or system human
[1] = HA-SS18SSX1_CHR_peptides: proteins found in HA-SS18-SSX1 BAF complex purification from solubilized chromatin (CHR), HEK-293T
[2] = HA-SS18SSX1_NE_peptides: protein co-purified with HA-SS18-SSX1 BAF complexes from soluble nuclear extract (NE), HEK-293T cells
[3] = HA-SS18WT_CHR_peptides: protein identified in HA-SS18 WT BAF complex purification from nuclease-treated solubilized chromatin (CHR), HEK-293T
[4] = HA-SS18WT_NE_peptides: proteins co-purified with HA-SS18 WT from nuclear extract (NE), HEK-293T
[5] = HA-SS18SSX1_CHR_peptides: protein identified in the HA-SS18-SSX1 purification from solubilized chromatin (CHR), HEK-293T
[6] = HA-SS18WT_CHR_peptides: HA-SS18 WT purification from nuclease-treated solubilized chromatin (CHR), HEK-293T, label = protein identified
[7] = HA-SS18WT_NE_peptides: HA-SS18 WT complexes purified from nuclear extract (NE), HEK-293T, label = protein identified (Gene Symbol)

B1: NIPSNAP2 (protein, UniProt O75323 24-286, looked up)
Protein NipSnap homolog 2: CSLLPRLRTWTSSSNRSREDSWLKSLFVRKVDPRKDAHSNLLAKKETSNLYKLQFHNVKPECLEAYNKICQEVLPKIHEDKHYPCTLVGTWNTWYGEQDQAVHLWRYEGGYPALTEVMNKLRENKEFLEFRKARSDMLLSRKNQLLLEFSFWNEPVPRSGPNIYELRSYQLRPGTMIEWGNYWARAIRFRQDGNEAVGGFFSQIGQLYMVHHLWAYRDLQTREDIRNAAWHKHGWEELVYYTVPLIQEMESRIMIPLKTSPLQ
- Total (peptides) [1]: 1
- Unique (peptides) [1]: 1
- Total (peptides) [2]: 2
- Unique (peptides) [2]: 2
- Total (total peptides) [3]: 2
- Unique (unique peptides) [3]: 1
- Total (peptides) [4]: 1
- Unique (peptides) [4]: 1

B2: NRM (protein, UniProt Q8IXM6 1-262, looked up)
Nurim: MAPALLLIPAALASFILAFGTGVEFVRFTSLRPLLGGIPESGGPDARQGWLAALQDRSILAPLAWDLGLLLLFVGQHSLMAAERVKAWTSRYFGVLQRSLYVACTALALQLVMRYWEPIPKGPVLWEARAEPWATWVPLLCFVLHVISWLLIFSILLVFDYAELMGLKQVYYHVLGLGEPLALKSPRALRLFSHLRHPVCVELLTVLWVVPTLGTDRLLLAFLLTLYLGLAHGLDQQDLRYLRAQLQRKLHLLSRPQDGEAE
- Total (peptides) [1]: 1
- Unique (peptides) [1]: 1
- Total (total peptides) [3]: 1
- Unique (unique peptides) [3]: 1

B3: USP11 (protein, UniProt P51784 1-963, looked up)
Ubiquitin carboxyl-terminal …: MAVAPRLFGGLCFRFRDQNPEVAVEGRLPISHSCVGCRRERTAMATVAANPAAAAAAVAAAAAVTEDREPQHEELPGLDSQWRQIENGESGRERPLRAGESWFLVEKHWYKQWEAYVQGGDQDSSTFPGCINNATLFQDEINWRLKEGLVEGEDYVLLPAAAWHYLVSWYGLEHGQPPIERKVIELPNIQKVEVYPVELLLVRHNDLGKSHTVQFSHTDSIGLVLRTARERFLVEPQEDTRLWAKNSEGSLDRLYDTHITVLDAALETGQLIIMETRKKDGTWPSAQLHVMNNNMSEEDEDFKGQPGICGLTNLGNTCFMNSALQCLSNVPQLTEYFLNNCYLEELNFRNPLGMKGEIAEAYADLVKQAWSGHHRSIVPHVFKNKVGHFASQFLGYQQHDSQELLSFLLDGLHEDLNRVKKKEYVELCDAAGRPDQEVAQEAWQNHKRRNDSVIVDTFHGLFKSTLVCPDCGNVSVTFDPFCYLSVPLPISHKRVLEVFFIPMDPRRKPEQHRLVVPKKGKISDLCVALSKHTGISPERMMVADVFSHRFYKLYQLEEPLSSILDRDDIFVYEVSGRIEAIEGSREDIVVPVYLRERTPARDYNNSYYGLMLFGHPLLVSVPRDRFTWEGLYNVLMYRLSRYVTKPNSDDEDDGDEKEDDEEDKDDVPGPSTGGSLRDPEPEQAGPSSGVTNRCPFLLDNCLGTSQWPPRRRRKQLFTLQTVNSNGTSDRTTSPEEVHAQPYIAIDWEPEMKKRYYDEVEAEGYVKHDCVGYVMKKAPVRLQECIELFTTVETLEKENPWYCPSCKQHQLATKKLDLWMLPEILIIHLKRFSYTKFSREKLDTLVEFPIRDLDFSEFVIQPQNESNPELYKYDLIAVSNHYGGMRDGHYTTFACNKDSGQWHYFDDNSVSPVNENQIESKAAYVLFYQRQDVARRLLSPAGSSGAPASPACSSPPSSEFMDVN
- Total (peptides) [1]: 1
- Unique (peptides) [1]: 1

B4: SF3B3 (protein)
chain: MFLYNLTLQRATGISFAIHGNFSGTKQQEIVVSRGKILELLRPDPNTGKVHTLLTVEVFGVIRSLMAFRLTGGTKDYIVVGSDSGRIVILEYQPSKNMFEKIHQETFGKSGCRRIVPGQFLAVDPKGRAVMISAIEKQKLVYILNRDAAARLTISSPLEAHKANTLVYHVVGVDVGFENPMFACLEMDYEEADNDPTGEAAANTQQTLTFYELDLGLNHVVRKYSEPLEEHGNFLITVPGGSDGPSGVLICSENYITYKNFGDQPDIRCPIPRRRNDLDDPERGMIFVCSATHKTKSMFFFLAQTEQGDIFKITLETDEDMVTEIRLKYFDTVPVAAAMCVLKTGFLFVASEFGNHYLYQIAHLGDDDEEPEFSSAMPLEEGDTFFFQPRPLKNLVLVDELDSLSPILFCQIADLANEDTPQLYVACGRGPRSSLRVLRHGLEVSEMAVSELPGNPNAVWTVRRHIEDEFDAYIIVSFVNATLVLSIGETVEEVTDSGFLGTTPTLSCSLLGDDALVQVYPDGIRHIRADKRVNEWKTPGKKTIVKCAVNQRQVVIALTGGELVYFEMDPSGQLNEYTERKEMSADVVCMSLANVPPGEQRSRFLAVGLVDNTVRIISLDPSDCLQPLSMQALPAQPESLCIVEMGGTEKQDELGERGSIGFLYLNIGLQNGVLLRTVLDPVTGDLSDTRTRYLGSRPVKLFRVRMQGQEAVLAMSSRSWLSYSYQSRFHLTPLSYETLEFASGFASEQCPEGIVAISTNTLRILALEKLGAVFNQVAFPLQYTPRKFVIHPESNNLIIIETDHNAYTEATKAQRKQQMAEEMVEAAGEDERELAAEMAAAFLNENLPESIFGAPKAGNGQWASVIRVMNPIQGNTLDLVQLEQNEAAFSVAVCRFSNTGEDWYVLVGVAKDLILNPRSVAGGFVYTYKLVNNGEKLEFLHKTPVEEVPAAIAPFQGRVLIGVGKLLRVYDLGKKKLLRKCENKHIANYISGIQTIGHRVIVSDVQESFIWVRYKRNENQLIIFADDTYPRWVTTASLLDYDTVAGADKFGNICVVRLPPNTNDEVDEDPTGNKALWDRGLLNGASQKAEVIMNYHVGETVLSLQKTTLIPGGSESLVYTTLSGGIGILVPFTSHEDHDFFQHVEMHLRSEHPPLCGRDHLSFRSYYFPVKNVIDGDLCEQFNSMEPNKQKNVSEELDRTPPEVSKKLEDIRTRYAF
- Total (total peptides) [5]: 20
- Unique (unique peptides) [5]: 18
- Total (peptides) [2]: 2
- Unique (peptides) [2]: 2
- Total (peptides) [6]: 9
- Unique (peptides) [6]: 9
- Total (peptides) [7]: 3
- Unique (peptides) [7]: 3

B5: DDX56 (protein, UniProt Q9NY93 1-547, looked up)
Probable ATP-dependent RNA …: MEDSEALGFEHMGLDPRLLQAVTDLGWSRPTLIQEKAIPLALEGKDLLARARTGSGKTAAYAIPMLQLLLHRKATGPVVEQAVRGLVLVPTKELARQAQSMIQQLATYCARDVRVANVSAAEDSVSQRAVLMEKPDVVVGTPSRILSHLQQDSLKLRDSLELLVVDEADLLFSFGFEEELKSLLCHLPRIYQAFLMSATFNEDVQALKELILHNPVTLKLQESQLPGPDQLQQFQVVCETEEDKFLLLYALLKLSLIRGKSLLFVNTLERSYRLRLFLEQFSIPTCVLNGELPLRSRCHIISQFNQGFYDCVIATDAEVLGAPVKGKRRGRGPKGDKASDPEAGVARGIDFHHVSAVLNFDLPPTPEAYIHRAGRTARANNPGIVLTFVLPTEQFHLGKIEELLSGENRGPILLPYQFRMEEIEGFRYRCRDAMRSVTKQAIREARLKEIKEELLHSEKLKTYFEDNPRDLQLLRHDLPLHPAVVKPHLGHVPDYLVPPALRGLVRPHKKRKKLSSSCRKAKRAKSQNPLRSFKHKGKKFRPTAKPS
- Total (peptides) [1]: 1
- Unique (peptides) [1]: 1

B6: RSF1 (protein, UniProt Q96T23 1-1441, looked up)
Remodeling and spacing factor …: MATAAAAAAVMAPPGCPGSCPNFAVVCSFLERYGPLLDLPELPFPELERVLQAPPPDVGNGEVPKELVELHLKLMRKIGKSVTADRWEKYLIKICQEFNSTWAWEMEKKGYLEMSVECKLALLKYLCECQFDDNLKFKNIINEEDADTMRLQPIGRDKDGLMYWYQLDQDHNVRMYIEEQDDQDGSSWKCIVRNRNELAETLALLKAQIDPVLLKNSSQQDNSSRESPSLEDEETKKEEETPKQEEQKESEKMKSEEQPMDLENRSTANVLEETTVKKEKEDEKELVKLPVIVKLEKPLPENEEKKIIKEESDSFKENVKPIKVEVKECRADPKDTKSSMEKPVAQEPERIEFGGNIKSSHEITEKSTEETEKLKNDQQAKIPLKKREIKLSDDFDSPVKGPLCKSVTPTKEFLKDEIKQEEETCKRISTITALGHEGKQLVNGEVSDERVAPNFKTEPIETKFYETKEESYSPSKDRNIITEGNGTESLNSVITSMKTGELEKETAPLRKDADSSISVLEIHSQKAQIEEPDPPEMETSLDSSEMAKDLSSKTALSSTESCTMKGEEKSPKTKKDKRPPILECLEKLEKSKKTFLDKDAQRLSPIPEEVPKSTLESEKPGSPEAAETSPPSNIIDHCEKLASEKEVVECQSTSTVGGQSVKKVDLETLKEDSEFTKVEMDNLDNAQTSGIEEPSETKGSMQKSKFKYKLVPEEETTASENTEITSERQKEGIKLTIRISSRKKKPDSPPKVLEPENKQEKTEKEEEKTNVGRTLRRSPRISRPTAKVAEIRDQKADKKRGEGEDEVEEESTALQKTDKKEILKKSEKDTNSKVSKVKPKGKVRWTGSRTRGRWKYSSNDESEGSGSEKSSAASEEEEEKESEEAILADDDEPCKKCGLPNHPELILLCDSCDSGYHTACLRPPLMIIPDGEWFCPPCQHKLLCEKLEEQLQDLDVALKKKERAERRKERLVYVGISIENIIPPQEPDFSEDQEEKKKDSKKSKANLLERRSTRTRKCISYRFDEFDEAIDEAIEDDIKEADGGGVGRGKDISTITGHRGKDISTILDEERKENKRPQRAAAARRKKRRRLNDLDSDSNLDEEESEDEFKISDGSQDEFVVSDENPDESEEDPPSNDDSDTDFCSRRLRRHPSRPMRQSRRLRRKTPKKKYSDDDEEEESEENSRDSESDFSDDFSDDFVETRRRRSRRNQKRQINYKEDSESDGSQKSLRRGKEIRRVHKRRLSSSESEESYLSKNSEDDELAKESKRSVRKRGRSTDEYSEADEEEEEEEGKPSRKRLHRIETDEEESCDNAHGDANQPARDSQPRVLPSEQESTKKPYRIESDEEEDFENVGKVGSPLDYSLVDLPSTNGQSPGKAIENLIGKPTEKSQTPKDNSTASASLASNGTSGGQEAGAPEEEEDELLRVTDLVDYVCNSEQL
- Total (total peptides) [5]: 20
- Unique (unique peptides) [5]: 18
- Total (peptides) [6]: 9
- Unique (peptides) [6]: 7

B7: DCAF13 (protein, UniProt Q9NV06 1-445, looked up)
DDB1- and CUL4-associated …: MKVKMLSRNPDNYVRETKLDLQRVPRNYDPALHPFEVPREYIRALNATKLERVFAKPFLASLDGHRDGVNCLAKHPEKLATVLSGACDGEVRIWNLTQRNCIRTIQAHEGFVRGICTRFCGTSFFTVGDDKTVKQWKMDGPGYGDEEEPLHTILGKTVYTGIDHHWKEAVFATCGQQVDIWDEQRTNPICSMTWGFDSISSVKFNPIETFLLGSCASDRNIVLYDMRQATPLKKVILDMRTNTICWNPMEAFIFTAANEDYNLYTFDMRALDTPVMVHMDHVSAVLDVDYSPTGKEFVSASFDKSIRIFPVDKSRSREVYHTKRMQHVICVKWTSDSKYIMCGSDEMNIRLWKANASEKLGVLTSREKAAKDYNQKLKEKFQHYPHIKRIARHRHLPKSIYSQIQEQRIMKEARRRKEVNRIKHSKPGSVPLVSEKKKHVVAVVK
- Total (peptides) [1]: 1
- Unique (peptides) [1]: 1
